From US20250135026A1 (BeiGene Switzerland GmbH, priority 2021, published 2025)

Assay: general procedure: solution-phase peptide synthesis; HOBt/DIEA; HATU/DIEA
Conditions: conjugation step

Substance	conjugation yield
(2-((2S,3R,4S,5R)-5-((((benzyloxy)carbonyl)amino)methyl)-3,4-dihydroxytetrahydrofuran-2-yl)acetyl)glycylglycylglycylglycine	19%
(2R,3S,4S,5R,6R)-2-(acetoxymethyl)-6-(((11S,19R)-11-benzyl-19-((benzyloxy)carbonyl)-1-(9H-fluoren-9-yl)-3,6,9,12,15-pentaoxo-2,18-dioxa-4,7,10,13,16-pentaazaicosan-20-yl)oxy)tetrahydro-2H-pyran-3,4,5-triyl triacetate (56c)	21.1% yield
(9H-fluoren-9-yl)methyl ((S)-7-benzyl-17-(((1S,9S)-9-ethyl-5-fluoro-9-hydroxy-4-methyl-10,13-dioxo-2,3,9,10,13,15-hexahydro-1H,12H-benzo[de]pyrano[3′,4′:6,7]indolizino[1,2-b]quinolin-1-yl)amino)-16,16-dimethyl-2,5,8,11,17-pentaoxo-14-oxa-3,6,9,12-tetraazaheptadecyl)carbamate	88.2%
